This assay in a line: qHTS Assay for Modulators of Lamin A Splicing. The settings on record: HeLa LMNA splicing GFP/RFP minigene ratio, 48 h. Put shortly:
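S3 HeLa stable clones carrying a lamin A-EGFP splicing minigene plus DsRed2 were seeded at 600 cells/well in Opti-MEM with 2% FBS, pin-dosed and incubated 48 h at 37°C. Acumen cytometry (488 nm) gave the GFP/RFP total-intensity ratio.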
A general note: In qHTS, concentration-response curves come from the screen itself.

The mark [1] stands for this setting: measured here: RFP viability control channel.
[2] abbreviates: measured here: GFP splicing reporter channel.

Where “and” joins values, the source holds several entries; their conditions need not be identical. Identical values can stand only once. The list shows a part of the results. Further columns of the screen follow, without active or inactive calls. Compounds called inactive in the main read-out are mostly missing here. The note in brackets gives the kind of curve behind each potency; many fits are weak.

As usually defined, the AC50 is the concentration at which the activity in the assay is half-maximal. For `CSCCC(NS(=O)(=O)c1ccc(Cl)cc1)C(=O)OCc1c(Cl)cccc1Cl` (stereo not given), the AC50 under setting [1] is 35.5 µM [rising, single point].

Turning to `CC(C)c1ccc(S(=O)(=O)/N=C2/C=C(Sc3ncn[nH]3)C(=O)c3ccccc32)cc1`, the AC50 by setting is: under setting [2], 4.47 µM [falling, full curve]; under setting [1], 3.98 µM [falling, full curve].

`Cc1ccc(C(C)C)c(OCC(=O)N2CCC(c3nc4ccccc4o3)CC2)c1`: the AC50 under setting [1] was 3.16 µM [falling, full curve].

On to `O=C(CSC(=S)N1CCOCC1)Nc1nc(-c2ccccc2)c(-c2ccccc2)o1`, for which the AC50 under setting [2] was 14.1 µM [falling, single point].

As for `CCOc1ccccc1C(=O)Nc1ccc2c(c1)N(C)C(=O)c1ccccc1S2`, the AC50 under setting [2] was 0.0316 µM [rising, full curve, poor fit] and the AC50 under setting [1] was 4.47 µM [rising, full curve].

Regarding `Cc1cc(/C=N/n2cnnc2)c(C)n1-c1ccc(OCc2ccc(Cl)cc2)cc1`, the AC50 is 3.55 µM [rising, partial curve] under setting [2] and 3.55 µM [rising, partial curve] under setting [1].

As for `CCN(CC(=O)Nc1cc(Cl)ccc1C)C(=O)COc1ccccc1F`, the AC50 under setting [1] is 0.0398 µM [falling, full curve, poor fit].

Consider `COc1ccc(/C(N)=N/OC(=O)Cc2ccc(C)cc2)cc1OC`, for which the AC50 under setting [1] was 35.5 µM [rising, partial curve].

As to `CCCCNC(=O)NS(=O)(=O)c1ccc(C)cc1`, the AC50 is 316 nM [falling, full curve, poor fit] and 15.8 nM [falling, full curve, poor fit] and 6.31 µM [rising, single point] under setting [2]; 0.224 µM [falling, single point] under setting [1].

Consider `CC(=O)c1cn(CC(=O)NCc2ccc3c(c2)OCO3)c2ccccc12`, for which the AC50 is 15.8 µM [rising, partial curve] under setting [2] and 14.1 µM [rising, partial curve] under setting [1].

Consider `Cc1ccc2nc(N/N=C/c3ccccc3C#N)nc(-c3ccccc3)c2c1`, for which the AC50 under setting [1] was 31.6 µM [falling, single point].

On to `O=C(CCN1C(=O)COc2ccccc21)NCCN1CCN(c2ccccc2F)CC1`, for which the AC50 under setting [2] is 10 µM [rising, partial curve].

In the case of `Cc1cc(SCn2nnc3ccccc3c2=O)nc2ccccc12`, the AC50 under setting [1] was 0.158 µM [rising, full curve, poor fit].

Regarding `OC(COc1ccccc1)Cn1c2ccccc2c2ccccc21` (stereo not given), under setting [1], the AC50 was 35.5 µM [rising, single point].

As for `CCOP(=O)(OCC)c1nc(/C=C/c2ccccc2)oc1NCc1ccc(OC)cc1`, the AC50 under setting [1] is 25.1 µM [rising, single point].

In the case of `Cc1ccc(Oc2ccc(NC(=O)c3ccco3)cc2)cc1`, the AC50 under setting [2] was 11.2 µM [rising, single point] and the AC50 under setting [1] is 20 µM [rising, single point].

As to `Fc1cccc(F)c1/C=N/Nc1ccccn1`, the AC50 under setting [2] is 0.01 µM [rising, full curve, poor fit] and the AC50 under setting [1] is 0.00447 µM [rising, full curve, poor fit].

As for `COc1cc(/C=C(/Sc2nnc(-c3ccc(F)cc3)o2)C(=O)O)ccc1OC(F)F`, under setting [1], the AC50 was 25.1 µM [rising, single point].

For the compound `Cn1c(=NC(=O)c2ccc3c(c2)OCCO3)sc2cc(S(C)(=O)=O)ccc21`, the AC50 is, setting by setting: under setting [2], 0.794 µM [rising, full curve, poor fit]; under setting [1], 0.794 µM [rising, full curve, poor fit].

Turning to `c1ccc(CN2CCN(c3nc4ccccc4c4ccccc34)CC2)cc1`, the AC50 under setting [1] was 11.2 µM [rising, partial curve, poor fit].

`CCOC(=O)c1cnc(-n2nc(C)cc2C)nc1NNc1nc(-c2ccccc2)cc(-c2ccccc2)n1`: the half-maximal activity concentration (AC50) under setting [1] was 11.2 µM [rising, partial curve].

Take `Cn1nc(C(=O)NCc2ccco2)c2ccccc2c1=O`: the AC50 was 0.00447 µM [falling, full curve, poor fit] under setting [2] and 0.00316 µM [falling, full curve, poor fit] under setting [1].

Regarding `Oc1c(Br)cccc1/C=N/Nc1c(F)c(F)c(F)c(F)c1F`, the AC50 under setting [2] is 22.4 µM [rising, single point] and the AC50 under setting [1] is 31.6 µM [rising, single point].

Take `O=C(N/N=C\c1cn(-c2ccccc2)nc1-c1ccccc1)c1ccc(Br)o1`: the AC50 under setting [2] is 10 µM [falling, partial curve, poor fit] and the AC50 under setting [1] was 14.1 µM [falling, partial curve, poor fit].

Consider `CCn1c(SCC(=O)Nc2cccc(NC(=O)c3cccs3)c2)nnc1-c1ccncc1`, for which the AC50 under setting [1] is 28.2 µM [rising, single point].

Regarding `CCOc1ccc2nc(NC(=O)CS(=O)(=O)c3ccc(Cl)cc3)sc2c1`, the AC50 under setting [1] was 2.24 µM [rising, single point].

With `Cc1cc(NC(=O)CSc2ncnc3c2cnn3-c2cccc(Cl)c2)no1`, the AC50 under setting [1] is 3.98 µM [rising, full curve, poor fit].

With `N#Cc1ccc(CN2C(=O)c3ccccc3Sc3ccc(C(=O)OCc4ccco4)cc32)cc1`, the AC50 runs as follows: under setting [2], 4.47 µM [rising, full curve, poor fit]; under setting [1], 0.251 µM [rising, full curve, poor fit].

Regarding `COc1ccc(OCc2nc(N)nc(Nc3ccc(C)cc3)n2)cc1`, the AC50 is 10 µM [rising, partial curve] under setting [2] and 11.2 µM [rising, single point] under setting [1].

On to `C=CCc1cccc(/C=N/NC(=O)CCC(=O)Nc2ccc(F)cc2)c1O`, for which the AC50 by setting is: under setting [2], 12.6 µM [rising, single point]; under setting [1], 17.8 µM [rising, partial curve].

Turning to `Cc1nn(C)c(C(=O)Nc2ccn(C34CC5CC(CC(C5)C3)C4)n2)c1[N+](=O)[O-]`, the AC50 under setting [1] is 35.5 µM [rising, single point].

With `Cc1cccc(N2CCN(C(=O)CSCc3ccc(F)cc3)CC2)c1C`, the AC50 under setting [2] was 11.2 µM [falling, partial curve].

`O=C(Cn1c(=O)oc2cc(S(=O)(=O)N3CCCC3)ccc21)N1CCN(c2ccccc2)CC1`: under setting [1], the AC50 is 1.78 µM [rising, partial curve, poor fit].

With `CCc1cc(/C(Cc2csc(C)n2)=N/O)c(O)cc1O`, under setting [1], the AC50 was 6.31 µM [rising, full curve].

With `Cc1ccc(N2C(=O)N(CC(=O)Nc3ccc(C)cc3C)C(=O)C2C)cc1` (stereo not given), the AC50 under setting [1] is 10 µM [falling, partial curve].

With `CCOC(=O)/C=C/C(=O)Nc1ccc(S(=O)(=O)N2CCCCCC2)cc1`, the AC50 was 35.5 µM [falling, partial curve] under setting [2] and 31.6 µM [falling, partial curve] under setting [1].

Consider `O=C(NCc1ccccc1)c1ccc(NC(=O)c2nsc3ccccc23)cc1`, for which the AC50 under setting [2] is 0.316 µM [rising, full curve, poor fit].

Take `Cc1nc2ccccn2c1C(=O)NCc1ccc2c(c1)OCO2`: under setting [1], the AC50 is 15.8 µM [rising, partial curve].

Consider `CCOc1cccc(CC(=O)Nc2ccc3nc(N4CCCCC4)cc(C)c3c2)c1OCC`, for which the AC50 under setting [1] is 7.08 µM [rising, full curve, poor fit].

With `COc1ccc(-n2c(C)cc(-c3csc(NC(=O)c4ccc(S(=O)(=O)N(C)C)cc4)n3)c2C)cc1`, the AC50 under setting [2] was 17.8 µM [rising, partial curve, poor fit] and the AC50 under setting [1] is 15.8 µM [rising, partial curve].

`CC(c1ccon1)N(C)Cc1cn[nH]c1-c1ccc(-c2ccccc2)cc1` (stereo not given): the AC50 is, setting by setting: under setting [2], 35.5 µM [falling, partial curve]; under setting [1], 35.5 µM [falling, single point].

As to `O=C(CN1C(=O)C2CCCCN2c2ccc(C(=O)N3CCCC3)cc21)NCc1cccc(Cl)c1` (stereo not given), the AC50 under setting [2] was 6.31 µM [falling, partial curve, poor fit].

`COc1cc2c(cc1NC(=O)/C=C/c1ccccc1)oc1ccccc12`: the AC50 by setting is: under setting [2], 12.6 µM [rising, partial curve]; under setting [1], 12.6 µM [rising, partial curve].

`C=CCNC(=O)c1cc(C(=O)C(C)c2ncc(C(F)(F)F)cc2Cl)c[nH]1` (stereo not given): the AC50 under setting [1] was 35.5 µM [falling, partial curve, poor fit].

As to `CC(=O)[C@H]1CC[C@H]2[C@@H]3C[C@H](C)C4=CC(=O)CC[C@]4(C)[C@H]3[C@@H](O)C[C@]12C`, under setting [2], the AC50 was 0.158 µM [rising, partial curve, poor fit].

Take `Cc1ccc(Cl)c2sc(NC(=O)CS(=O)(=O)c3ccc(Cl)cc3)nc12`: the AC50 is 35.5 µM [falling, single point] under setting [2] and 2.82 µM [falling, partial curve, poor fit] under setting [1].

On to `COc1cc2ccccc2cc1C(=O)NC(=S)Nc1cccc(C(=O)O)c1`, for which the AC50 under setting [1] was 35.5 µM [falling, single point].

`CCC(=O)Nc1nonc1-c1nc2ccccc2n1Cc1cccc2ccccc12`: the AC50 under setting [2] was 25.1 µM [falling, single point].

`CCOC(=O)OC(C)OC1=C(C(=O)Nc2ccccn2)N(C)S(=O)(=O)c2ccccc21` (stereo not given): the AC50 under setting [2] is 5.62 µM [rising, single point] and the AC50 under setting [1] was 3.98 µM [rising, full curve, poor fit].

As to `O=S1(=O)C=CC(Sc2nc3ccccc3[nH]2)C1` (stereo not given), the AC50 under setting [2] was 15.8 µM [falling, single point] and the AC50 under setting [1] is 35.5 µM [falling, single point].

Turning to `Cc1c(C(=O)NCC2COc3ccccc3O2)oc2ccc(S(=O)(=O)N3CC(C)CC(C)C3)cc12` (stereo not given), the AC50 reads like this: under setting [2], 10 µM [rising, partial curve, poor fit]; under setting [1], 11.2 µM [rising, partial curve].

In the case of `CCN(CC)C1=CC2=CC(=C(C#N)C#N)CCC2CC1` (stereo not given), the AC50 was 0.251 µM [falling, full curve] under setting [2] and 0.447 µM [falling, full curve] under setting [1].
